# Measured values taken from patent US11958829B1, “3-(4,5-diphenyl-2-(pyridin-3-YL)-1H-imidazol-1-YL)-N,N-dimethylpopan-1-amine as an antimicrobial compound” (KING FAISAL UNIVERSITY, priority 2023, dated 2024).
# At least one compound was matched to its structure with a doubt left.
# Assays:
# Assay in all cases: Anti-microbial screening, agar dilution
# [1] = system: Candida albicans; format: cell-based; settings: for antimicrobial activity (+/−), last column without head: no exposure time or culture printed
# Experimental: (§1) The antibacterial properties of the present compound were studied by the method of agar dilution. Test solutions of the compound were prepared in a concentration of 1% using dimethylformamide as a solvent then they are diluted in physiological solution to obtain the final experimental dilutions 1:100, 1:200, 1:400, and 1:800. The effect of these substances were compared with furacillin in a controllable study. The testing microbes used were gram positive bacteria St. Aereus, gram negative bacteria E. Coli, Ps. aeruginosa and Candida albicans fungi were taken. The experiments used for this survey were meat-pentonlu agar (EPA) for cultivation of bacteria and Saburo environment for fungi. Each experiment used 1 ml of test solution on each plate 500 min. Add 2 drops of emulsified with microbes feel. All experimental samples were taken from the agar after 10, 20, 40, and 60 minutes in the environment on the basis of Patrk planted. Bacteria were cultivated at a temperature of 37° C. for 1 day and the mushroom was kept in a thermostat for […] at a temperature of 28° C. Then results were checked.
# [2] = system: St. Aereus; format: cell-based
# Experimental: as §1
# [3] = system: E. Coli; format: cell-based
# Experimental: as §1
# [4] = system: Ps. Aeroqonaza; format: cell-based, Ps. aeruginosa
# Experimental: as §1
# [5] = dilution rate 1:100, exposure time 10 min
# [6] = dilution rate 1:100, exposure time 20 min
# [7] = dilution rate 1:100, exposure time 40 min
# [8] = dilution rate 1:100, exposure time 60 min
# [9] = dilution rate 1:200, exposure time 10 min
# [10] = dilution rate 1:200, exposure time 20 min
# [11] = dilution rate 1:200, exposure time 40 min
# [12] = dilution rate 1:200, exposure time 60 min
# [13] = dilution rate 1:400, exposure time 10 min
# [14] = dilution rate 1:400, exposure time 20 min
# [15] = dilution rate 1:400, exposure time 40 min
# [16] = dilution rate 1:400, exposure time 60 min
# [17] = dilution rate 1:800, exposure time 10 min
# [18] = dilution rate 1:800, exposure time 20 min
# [19] = dilution rate 1:800, exposure time 40 min
# [20] = dilution rate 1:800, exposure time 60 min
smiles,measurement,setting,value
NC(=O)N/N=C/c1ccc([N+](=O)[O-])o1 [Furacilin],"antimicrobial activity (+/−), last column without head","[1]; dilution rate 1:100, 17th result cell",+
same,"antimicrobial activity (+/−), test-culture Candida albicans",[1]; [5],+
same,"antimicrobial activity (+/−), test-culture Candida albicans",[1]; [6],−
same,"antimicrobial activity (+/−), test-culture Candida albicans",[1]; [7],−
same,"antimicrobial activity (+/−), test-culture Candida albicans",[1]; [8],+
same,"antimicrobial activity (+/−), last column without head","[1]; dilution rate 1:200, 17th result cell",+
same,"antimicrobial activity (+/−), test-culture Candida albicans",[1]; [9],+
same,"antimicrobial activity (+/−), test-culture Candida albicans",[1]; [10],+
same,"antimicrobial activity (+/−), test-culture Candida albicans",[1]; [11],+
same,"antimicrobial activity (+/−), test-culture Candida albicans",[1]; [12],+
same,"antimicrobial activity (+/−), last column without head","[1]; dilution rate 1:400, 17th result cell",+
same,"antimicrobial activity (+/−), test-culture Candida albicans",[1]; [13],+
same,"antimicrobial activity (+/−), test-culture Candida albicans",[1]; [14],+
same,"antimicrobial activity (+/−), test-culture Candida albicans",[1]; [15],+
same,"antimicrobial activity (+/−), test-culture Candida albicans",[1]; [16],+
same,"antimicrobial activity (+/−), last column without head","[1]; dilution rate 1:800, 17th result cell",+
same,"antimicrobial activity (+/−), test-culture Candida albicans",[1]; [17],+
same,"antimicrobial activity (+/−), test-culture Candida albicans",[1]; [18],+
same,"antimicrobial activity (+/−), test-culture Candida albicans",[1]; [19],+
same,"antimicrobial activity (+/−), test-culture Candida albicans",[1]; [20],+
same,"antimicrobial activity (+/−), test-culture St. Aereus",[2]; [5],−
same,"antimicrobial activity (+/−), test-culture St. Aereus",[2]; [6],−
same,"antimicrobial activity (+/−), test-culture St. Aereus",[2]; [7],−
same,"antimicrobial activity (+/−), test-culture St. Aereus",[2]; [8],−
same,"antimicrobial activity (+/−), test-culture St. Aereus",[2]; [9],+
same,"antimicrobial activity (+/−), test-culture St. Aereus",[2]; [10],+
same,"antimicrobial activity (+/−), test-culture St. Aereus",[2]; [11],+
same,"antimicrobial activity (+/−), test-culture St. Aereus",[2]; [12],+
same,"antimicrobial activity (+/−), test-culture St. Aereus",[2]; [13],+
same,"antimicrobial activity (+/−), test-culture St. Aereus",[2]; [14],+
same,"antimicrobial activity (+/−), test-culture St. Aereus",[2]; [15],+
same,"antimicrobial activity (+/−), test-culture St. Aereus",[2]; [16],+
same,"antimicrobial activity (+/−), test-culture St. Aereus",[2]; [17],+
same,"antimicrobial activity (+/−), test-culture St. Aereus",[2]; [18],+
same,"antimicrobial activity (+/−), test-culture St. Aereus",[2]; [19],+
same,"antimicrobial activity (+/−), test-culture St. Aereus",[2]; [20],+
same,"antimicrobial activity (+/−), test-culture E. Coli",[3]; [5],−
same,"antimicrobial activity (+/−), test-culture E. Coli",[3]; [6],−
same,"antimicrobial activity (+/−), test-culture E. Coli",[3]; [7],−
same,"antimicrobial activity (+/−), test-culture E. Coli",[3]; [8],−
same,"antimicrobial activity (+/−), test-culture E. Coli",[3]; [9],+
same,"antimicrobial activity (+/−), test-culture E. Coli",[3]; [10],+
same,"antimicrobial activity (+/−), test-culture E. Coli",[3]; [11],+
same,"antimicrobial activity (+/−), test-culture E. Coli",[3]; [12],+
same,"antimicrobial activity (+/−), test-culture E. Coli",[3]; [13],+
same,"antimicrobial activity (+/−), test-culture E. Coli",[3]; [14],+
same,"antimicrobial activity (+/−), test-culture E. Coli",[3]; [15],+
same,"antimicrobial activity (+/−), test-culture E. Coli",[3]; [16],+
same,"antimicrobial activity (+/−), test-culture E. Coli",[3]; [17],+
same,"antimicrobial activity (+/−), test-culture E. Coli",[3]; [18],+
same,"antimicrobial activity (+/−), test-culture E. Coli",[3]; [19],+
same,"antimicrobial activity (+/−), test-culture E. Coli",[3]; [20],+
same,"antimicrobial activity (+/−), test-culture Ps. Aeroqonaza",[4]; [5],−
same,"antimicrobial activity (+/−), test-culture Ps. Aeroqonaza",[4]; [6],+
same,"antimicrobial activity (+/−), test-culture Ps. Aeroqonaza",[4]; [7],+
same,"antimicrobial activity (+/−), test-culture Ps. Aeroqonaza",[4]; [8],+
same,"antimicrobial activity (+/−), test-culture Ps. Aeroqonaza",[4]; [9],+
same,"antimicrobial activity (+/−), test-culture Ps. Aeroqonaza",[4]; [10],+
same,"antimicrobial activity (+/−), test-culture Ps. Aeroqonaza",[4]; [11],+
same,"antimicrobial activity (+/−), test-culture Ps. Aeroqonaza",[4]; [12],+
same,"antimicrobial activity (+/−), test-culture Ps. Aeroqonaza",[4]; [13],+
same,"antimicrobial activity (+/−), test-culture Ps. Aeroqonaza",[4]; [14],+
same,"antimicrobial activity (+/−), test-culture Ps. Aeroqonaza",[4]; [15],+
same,"antimicrobial activity (+/−), test-culture Ps. Aeroqonaza",[4]; [16],+
same,"antimicrobial activity (+/−), test-culture Ps. Aeroqonaza",[4]; [17],+
same,"antimicrobial activity (+/−), test-culture Ps. Aeroqonaza",[4]; [18],+
same,"antimicrobial activity (+/−), test-culture Ps. Aeroqonaza",[4]; [19],+
same,"antimicrobial activity (+/−), test-culture Ps. Aeroqonaza",[4]; [20],+
